B1: P-2219: 2PE14_OptA (Q1D_Q5V_N32W_A74S_K83R_Q108L) (VHH)
VHH: DVQLVESGGGLVQPGGSLRLSCAASGSTFSIWAVAWYRQAPGKRRELVAGISGGGVTNYPDSVKGRFTISRDNSKNTVYLQMSSLRPEDTAVYYCNLWPPRASPGGRVYWGQGTLVTVSS
B2: P-2222: 3PE42_OptB (Q1D_Q5V_M31D_N32W_A74S_K83R_Q108L) (VHH)
VHH: DVQLVESGGGLVQPGGSLRLSCAASGSTSSDWAMAWYRQAPGKRRELVAGISGGGATNYPDSVKGRFTISRDNSKNTVYLQMSSLRPEDTAVYYCNLWPPRASPGGGVYWGQGTLVTVSS
B3: P-2220: 2PE14_OptB (Q1D_Q5V_N32W_A74S_S82N_K83R_Q108L) (VHH)
VHH: DVQLVESGGGLVQPGGSLRLSCAASGSTFSIWAVAWYRQAPGKRRELVAGISGGGVTNYPDSVKGRFTISRDNSKNTVYLQMNSLRPEDTAVYYCNLWPPRASPGGRVYWGQGTLVTVSS

For three molecules, binding results are on record in patent publication US20220332844A1 (ORIONIS BIOSCIENCES, published 2022).

These are yes or no findings as the source states them, for the method shown. A result given as binding can be weak or reduced; the word gives no strength.

The target of this experiment is recombinant FAP protein (BioLegend), biotinylated (Homo sapiens (Human)). Briefly: BLI, biotinylated FAP on streptavidin sensors (FIG. 24). For orientation: BLI is a label-free optical method that tracks binding on a fibre tip over time.
As to B1, the binding result is “binds”.

For the molecule B2, the binding result is recorded as “binds”.

For the molecule B3, the binding entry is given as “binds”.
